Patent US20180318383A1, “PEPTIDE HAVING NEURONAL LOSS PREVENTION AND REGENERATION EFFECTS, AND COMPOSITION CONTAINING SAME” (GEMVAX & KAEL CO., LTD., priority 2015, published 2018)

Tested on: NSCs
Experiment: Penetration of FITC-labeled PEP1 into NSCs
Format: cell-based, rat

Sequence: EARPALLTSRLRFIPK (homo sapiens) [PEP1, hTERT-derived peptide consisting of 16 amino acids, telomerase location [611-626]]
- intracellular localization (10 μM FITC-labeled PEP1, normal environment): usually localized in the cytoplasm and the mitochondria
- PEP1 level in the cells (FITC-labeled PEP1, 0 to 24 hours): time-dependently increased
- intracellular localization in damaged NSCs (NSCs damaged by 20 μM Aβ25-35): some of the PEP1 penetrated into the nucleus
